Taken from: PubChem BioAssay AID1159584 (Peter MacCallum Cancer Centre, 2016)

Aim: 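Genes that CDH1-null MCF10A cells selectively depend on to survive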 (primary screen)
System: human MCF10A breast epithelial cells, parental and CDH1-null
Knock-down reagent: siRNA against human genes
Measured: 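Cell viability by CellTiter-Glo ATP luminescence, each line scaled to the mean of mock wells across plates, then CDH1-null over parental ratio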
Scale: CDH1-null / parental viability ratio: higher = CDH1-null cells survive relatively better than parental
The deposit covers about 18,000 reagents; this is a random part of them. Not all columns of the deposit are shown. Not given: the amount of reagent, the time to read-out.

FGF7 (fibroblast growth factor 7) showed CDH1-null / parental viability ratio 0.92.
Against EXOSC10 (exosome component 10), the values are CDH1-null / parental viability ratio 0.84.
Against SENP6 (SUMO specific peptidase 6), the values are CDH1-null / parental viability ratio 0.94.
For GATAD1 (GATA zinc finger domain containing 1), the values are CDH1-null / parental viability ratio 0.97.
Against ALDH1L2 (aldehyde dehydrogenase 1 family member L2), the entry reads CDH1-null / parental viability ratio 0.83.
For RBL1 (RB transcriptional corepressor like 1), the entry reads CDH1-null / parental viability ratio 1.03.
ZBTB17 (zinc finger and BTB domain containing 17) gave CDH1-null / parental viability ratio 0.92.
ARL13B (ARF like GTPase 13B) scored CDH1-null / parental viability ratio 0.87.
Against LGALS7B (galectin 7B), the values are CDH1-null / parental viability ratio 1.
Against LSM14A (LSM14A mRNA processing body assembly factor), the values are CDH1-null / parental viability ratio 0.88.
After knock-down of VKORC1L1 (vitamin K epoxide reductase complex subunit 1L1), the screen gave CDH1-null / parental viability ratio 0.75.
With knock-down of MEX3B (mex-3 RNA binding family member B), the screen gave CDH1-null / parental viability ratio 1.01.
Against ACTR10 (actin related protein 10) the deposit lists CDH1-null / parental viability ratio 0.78.
SPG7 (SPG7 matrix AAA peptidase subunit, paraplegin) scored CDH1-null / parental viability ratio 0.99.
Silencing of CREB5 (cAMP responsive element binding protein 5) resulted in: CDH1-null / parental viability ratio 0.93.
Depletion of VPS26B (VPS26 retromer complex component B) gave: CDH1-null / parental viability ratio 0.9.
Against VPS26A (VPS26 retromer complex component A), the values are CDH1-null / parental viability ratio 1.29.
For EEF1D (eukaryotic translation elongation factor 1 delta), the values are CDH1-null / parental viability ratio 1.
With knock-down of FCRL2 (Fc receptor like 2), the record shows CDH1-null / parental viability ratio 0.68.
Silencing of QRICH1 (glutamine rich 1) gave: CDH1-null / parental viability ratio 1.28.
With knock-down of CLNS1A (chloride nucleotide-sensitive channel 1A), the record shows CDH1-null / parental viability ratio 1.38.
CYTH1 (cytohesin 1) gave CDH1-null / parental viability ratio 0.76.
After knock-down of HMG20B (high mobility group 20B) the results were CDH1-null / parental viability ratio 0.91.
Depletion of FAF1 (Fas associated factor 1) came out at: CDH1-null / parental viability ratio 0.87.
Depletion of FNDC3B (fibronectin type III domain containing 3B) came out at: CDH1-null / parental viability ratio 0.75.
LRP2 (LDL receptor related protein 2) showed CDH1-null / parental viability ratio 0.91.
Silencing of XKRYP7 (XK related, Y-linked pseudogene 7) resulted in: CDH1-null / parental viability ratio 0.62.
After knock-down of ZFY (zinc finger protein Y-linked), the screen gave CDH1-null / parental viability ratio 1.95.
For RPUSD3 (RNA pseudouridine synthase D3), the values are CDH1-null / parental viability ratio 1.2.
TLE1 (TLE family member 1, transcriptional corepressor) gave CDH1-null / parental viability ratio 0.97.
FERD3L (Fer3 like bHLH transcription factor) scored CDH1-null / parental viability ratio 1.21.
For MIIP (migration and invasion inhibitory protein) the deposit lists CDH1-null / parental viability ratio 1.1.
For EMC9 (ER membrane protein complex subunit 9), the values are CDH1-null / parental viability ratio 1.08.
OAS3 (2'-5'-oligoadenylate synthetase 3) scored CDH1-null / parental viability ratio 0.91.
Silencing of USP46 (ubiquitin specific peptidase 46) gave: CDH1-null / parental viability ratio 1.14.

Look-ups from the entries so far:
LRP2 (LDL receptor related protein 2), CDH1-null / parental viability ratio: 0.91
For “CDH1-null / parental viability ratio”, TLE1 (TLE family member 1, transcriptional corepressor) is entered as 0.97
